# Results of single-concentration screens

The chains behind the UniProt entries cited, without tags or fusion partners. Residues count along the entry.
UniProt Q4DA54, 1-478: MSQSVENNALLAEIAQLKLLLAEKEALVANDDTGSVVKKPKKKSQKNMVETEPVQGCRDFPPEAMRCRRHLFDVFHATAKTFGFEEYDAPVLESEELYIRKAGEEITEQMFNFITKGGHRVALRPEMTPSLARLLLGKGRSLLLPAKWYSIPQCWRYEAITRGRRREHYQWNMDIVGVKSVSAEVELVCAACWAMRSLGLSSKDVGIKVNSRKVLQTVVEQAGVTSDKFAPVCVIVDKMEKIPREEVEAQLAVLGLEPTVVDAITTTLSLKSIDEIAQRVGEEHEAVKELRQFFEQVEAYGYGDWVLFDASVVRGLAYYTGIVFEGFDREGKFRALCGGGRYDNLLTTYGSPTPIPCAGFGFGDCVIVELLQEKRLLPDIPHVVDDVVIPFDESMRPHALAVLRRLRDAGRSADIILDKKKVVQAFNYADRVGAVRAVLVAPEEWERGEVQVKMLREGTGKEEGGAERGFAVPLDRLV

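Histidine-tRNA ligase, Trypanosoma cruzi CL Brener (UniProt Q4DA54). Enzyme assay of histidyl-tRNA synthetase; the read-out is not stated. Tested at 30 µM. The record gives no direction; compounds that gave an IC50 in retests scored well above the rest, so higher reads as stronger inhibition. Size under these conditions: about 69,000 compounds, about 31 of them at 50% or above in at least one test.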

The filed quantity is “Percent Effect” (%). The record does not define 0% and 100%; most values in the screen are far below 50% and negative numbers occur (in some assays of this library far below -100). Compounds were drawn at random from those tested, without regard to their results.

O=c1n(Cc2ccc(C(F)(F)F)cc2)nc2ncccn12 gave 15%.
Cc1nnsc1C(=O)N1CCN(CC2CC2)[C@@H]2CS(=O)(=O)C[C@@H]21 gave 4.545%.
CN1CC[C@H]2CN(C(=O)c3ccc4sc5c(c4c3)CCNC5=O)C[C@H]21 gave -0.5025%.
CCOc1cc(C)ccc1NS(=O)(=O)c1cc(C)c(C(=O)O)s1 gave -9.302%.
Cc1cc(C)cc(C(=O)NCCCC2(C3OCCO3)CCOCC2)c1 gave 4.712%.
c1ccc(CN2CCc3c(COCC4CC4)cncc3C2)nc1 gave 5.288%.
CCc1ccc(CNC(=O)NC2CCCc3c2cnn3CCO)s1 (centres unmarked) gave 13.33%.
Cc1ccc(C(=O)N2CCO[C@H]3[C@@H](OCc4ccccn4)CC[C@@H]32)o1 gave 5.435%.
O=C(CCN1CCOC(Cn2cccn2)C1)NC1CCCC1 (centres unmarked) gave -4.135%.
CN(C)C1CCCN(C(=O)c2cccc(-c3ncc[nH]3)c2)CC1 (centres unmarked) gave 9.74%.
O=C1CCCN1CC1CN(C(=O)N2CCOCC2)Cc2nccn2C1 (centres unmarked) gave 5.376%.
CN1CCCC1c1ccc(N2CCOCC2)cn1 (centres unmarked) gave 3.143%.
Cc1nc(C)c(C(=O)N2CCCC2c2nnc3n2CCCCC3)s1 (centres unmarked) gave -29.41%.
O=C(NCC1CC1)C1CSCN1S(=O)(=O)c1cccc(F)c1 (centres unmarked) gave 2.479%.
CN(CCc1ncnn1-c1ccccc1Cl)C1CCS(=O)(=O)C1 (centres unmarked) gave 5.473%.
CN1CCC(N(C)CCC(=O)N2CCC(OCc3ccccc3)CC2)C1 (centres unmarked) gave 6.494%.
Cc1ccc(Oc2c(F)cccc2OC[C@@H](N)CC(C)C)cc1 gave 24.9%.
O=S(=O)(Cc1ccon1)N1CCN(c2ccncc2Cl)CC1 gave 10%.
CCn1nc(C)c2nc(C(C)C)nc(NCCCn3ccnc3)c21 gave 4.348%.
CC(=O)N1C[C@@H](c2ccsc2)[C@@H]2CN(CC3CCCCC3)CC[C@@H]21 gave 7.91%.
O=S(=O)(c1ccccc1)N1CCOCC(Cc2cccnc2)C1 (centres unmarked) gave 10.34%.
CCS(=O)(=O)N1C[C@H]2C[C@H](C(=O)N(C)C)[C@@H](C1)O2 gave 0.5464%.
CC(C)CCc1noc(CN2CCCN(C(=O)c3ccco3)CC2)n1 gave -0.8264%.
OCc1c(Cl)ncn1-c1ccc(F)cc1 gave 12.12%.
OC1(CN2CCOC(CNc3cccnn3)C2)CCCCC1 (centres unmarked) gave 4.571%.
Cn1cc(CN(C/C=C/c2ccccc2)C2CC2)cn1 gave 6.098%.
NCc1cnn(-c2ccccc2C(=O)N2CCCC(C(N)=O)C2)c1 (centres unmarked) gave 4.615%.
CC(C)N1c2sc(-c3ccsc3)nc2CC1C(=O)NC1CC1 (centres unmarked) gave 2.299%.
CCc1cccc(NS(=O)(=O)c2cc(C)c(C(=O)O)s2)c1 gave 6.977%.
Cc1noc(C2CCN(C(=O)CCNc3ncccn3)CC2)n1 gave 1.527%.
CCN(CC)C(=O)c1cc(-c2cccc(Cl)c2)no1 gave 2.02%.
CCN1CCC(CC(=O)NCc2cc(C)nn2C)CC1 gave 14.12%.
Fc1ccc(C2CCCCN2Cc2cc(-c3ccccn3)no2)cc1 (centres unmarked) gave 1.786%.
O=C(CCNc1ncccn1)N1CCCC(n2cccn2)C1 (centres unmarked) gave 3.38%.
COCCNS(=O)(=O)c1cccc2c1CN(C(=O)c1ccoc1)CC2 gave 3.96%.
CC1=Nc2c(c(=O)[nH]n2C2CCCC2)C(c2cccc(O)c2)S1 (centres unmarked) gave 3.825%.
O=C(Cc1ccc2c(c1)CCO2)N1CCN(c2cnccn2)CC1 gave 0.3802%.
COC(=O)c1ccoc1CN(C)CC(=O)NC1CCS(=O)(=O)C1 (centres unmarked) gave 10.05%.
COCCN(Cc1ccoc1)C(=O)c1ccc(Cl)s1 gave 3%.

Once more, the final 5:

Compound,effect
COCCNS(=O)(=O)c1cccc2c1CN(C(=O)c1ccoc1)CC2,3.96%
CC1=Nc2c(c(=O)[nH]n2C2CCCC2)C(c2cccc(O)c2)S1 (centres unmarked),3.825%
O=C(Cc1ccc2c(c1)CCO2)N1CCN(c2cnccn2)CC1,0.3802%
COC(=O)c1ccoc1CN(C)CC(=O)NC1CCS(=O)(=O)C1 (centres unmarked),10.05%
COCCN(Cc1ccoc1)C(=O)c1ccc(Cl)s1,3%

Source: ChEMBL document CHEMBL3988442, “University of Dundee, Small-Polar-MMV Screening Library” (2021).